Some of the results follow. Residues, ends and D or L forms follow the SMILES beside them. *: point of attachment. Cbz = O=C(OCc1ccccc1)*
Experiments:
Experiment in all cases: log2 fold change, soluble protein after heating vs DMSO (PISA); higher = thermal stabilisation; K562 cells, 10 uM, 30 min; active = over 0.2 and 3.5 SD of the protein, either way, in both replicates (recomputed)
erlotinib = compound: C#Cc1cccc(Nc2ncnc3cc(OCCOC)c(OCCOC)cc23)c1 [erlotinib]
In short: (§1)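 Aliquots of K562 cells (2×10^6 cells/mL) treated with 10 μM compound for 30 min were heated for 3 min over 48°C-58°C. After pooling and extraction in PBS with 0.5% NP-40 at 4°C, soluble protein from a 21,000xg, 90 min spin was quantified by TMTpro 16plex LC-MS/MS with channel sums equalised. Thermal stability is expressed against control samples, from duplicates, as a log2 fold change.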

Amino acid sequences for entries named in this document (tags omitted). A change or cut given only in a name is not applied to a line headed by its entry.
UniProt Q4KWH8: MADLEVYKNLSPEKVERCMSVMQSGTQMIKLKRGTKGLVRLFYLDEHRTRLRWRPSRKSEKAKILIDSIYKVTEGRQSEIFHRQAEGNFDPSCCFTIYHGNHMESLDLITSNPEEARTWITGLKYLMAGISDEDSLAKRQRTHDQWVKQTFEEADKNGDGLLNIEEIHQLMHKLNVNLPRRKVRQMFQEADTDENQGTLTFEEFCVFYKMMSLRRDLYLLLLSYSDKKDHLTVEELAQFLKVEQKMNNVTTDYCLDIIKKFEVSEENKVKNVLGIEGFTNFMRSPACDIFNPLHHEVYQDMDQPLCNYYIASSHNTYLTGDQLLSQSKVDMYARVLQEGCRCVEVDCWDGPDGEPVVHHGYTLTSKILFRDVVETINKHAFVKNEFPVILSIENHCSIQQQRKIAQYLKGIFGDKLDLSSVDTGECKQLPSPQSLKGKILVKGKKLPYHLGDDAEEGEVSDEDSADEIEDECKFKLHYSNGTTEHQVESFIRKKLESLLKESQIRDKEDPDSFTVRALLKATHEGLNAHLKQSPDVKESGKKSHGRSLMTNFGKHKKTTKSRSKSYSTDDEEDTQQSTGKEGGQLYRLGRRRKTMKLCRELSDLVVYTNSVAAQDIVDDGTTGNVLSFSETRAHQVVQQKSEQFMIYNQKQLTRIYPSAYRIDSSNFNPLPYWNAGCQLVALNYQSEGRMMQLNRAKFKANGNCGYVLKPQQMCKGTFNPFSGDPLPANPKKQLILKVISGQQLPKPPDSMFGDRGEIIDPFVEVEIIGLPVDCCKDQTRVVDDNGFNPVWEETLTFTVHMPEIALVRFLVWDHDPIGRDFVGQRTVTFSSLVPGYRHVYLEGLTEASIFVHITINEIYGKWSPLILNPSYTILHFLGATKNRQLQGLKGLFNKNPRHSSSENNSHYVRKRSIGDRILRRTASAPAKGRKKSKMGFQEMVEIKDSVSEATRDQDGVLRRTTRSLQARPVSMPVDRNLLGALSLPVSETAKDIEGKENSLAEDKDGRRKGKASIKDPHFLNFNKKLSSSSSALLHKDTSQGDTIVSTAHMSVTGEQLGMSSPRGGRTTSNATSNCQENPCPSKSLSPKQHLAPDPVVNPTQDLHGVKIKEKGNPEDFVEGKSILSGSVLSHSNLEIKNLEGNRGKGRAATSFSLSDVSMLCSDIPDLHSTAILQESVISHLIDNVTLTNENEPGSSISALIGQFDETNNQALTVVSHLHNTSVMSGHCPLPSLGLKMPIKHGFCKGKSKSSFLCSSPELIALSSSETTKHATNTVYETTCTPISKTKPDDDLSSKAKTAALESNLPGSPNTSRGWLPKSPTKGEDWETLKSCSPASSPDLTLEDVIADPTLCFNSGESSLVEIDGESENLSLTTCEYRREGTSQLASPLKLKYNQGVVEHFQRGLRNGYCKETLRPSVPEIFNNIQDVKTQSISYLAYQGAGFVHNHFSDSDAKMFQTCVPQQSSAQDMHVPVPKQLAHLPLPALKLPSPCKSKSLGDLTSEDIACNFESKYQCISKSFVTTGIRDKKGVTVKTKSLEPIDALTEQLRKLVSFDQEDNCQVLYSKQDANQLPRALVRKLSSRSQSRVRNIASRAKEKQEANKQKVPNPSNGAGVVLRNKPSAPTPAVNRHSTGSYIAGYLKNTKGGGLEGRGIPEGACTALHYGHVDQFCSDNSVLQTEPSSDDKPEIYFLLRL
UniProt Q86T03: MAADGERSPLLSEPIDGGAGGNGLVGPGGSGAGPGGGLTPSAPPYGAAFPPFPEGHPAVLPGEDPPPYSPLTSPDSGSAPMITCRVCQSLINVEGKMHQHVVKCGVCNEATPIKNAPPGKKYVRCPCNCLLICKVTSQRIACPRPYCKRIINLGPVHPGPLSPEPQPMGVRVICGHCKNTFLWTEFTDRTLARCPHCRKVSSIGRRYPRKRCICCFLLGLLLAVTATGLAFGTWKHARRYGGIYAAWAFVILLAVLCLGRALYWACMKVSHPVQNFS
UniProt Q9UHV9, whole entry, looked up: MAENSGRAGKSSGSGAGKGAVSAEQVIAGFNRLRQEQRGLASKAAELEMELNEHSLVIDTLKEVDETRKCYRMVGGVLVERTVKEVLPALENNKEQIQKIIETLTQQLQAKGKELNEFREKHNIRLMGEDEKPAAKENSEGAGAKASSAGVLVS
UniProt P53609, whole entry, looked up: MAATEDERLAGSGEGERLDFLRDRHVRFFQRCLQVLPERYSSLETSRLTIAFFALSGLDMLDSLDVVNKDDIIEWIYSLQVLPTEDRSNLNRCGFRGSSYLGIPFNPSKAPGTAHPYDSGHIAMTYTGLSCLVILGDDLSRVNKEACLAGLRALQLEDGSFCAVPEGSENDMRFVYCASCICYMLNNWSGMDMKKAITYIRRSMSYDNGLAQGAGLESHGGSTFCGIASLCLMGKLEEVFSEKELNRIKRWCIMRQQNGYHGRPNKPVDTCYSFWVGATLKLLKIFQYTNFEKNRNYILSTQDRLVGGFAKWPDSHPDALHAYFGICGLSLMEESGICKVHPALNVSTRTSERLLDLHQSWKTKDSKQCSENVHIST
UniProt Q16877: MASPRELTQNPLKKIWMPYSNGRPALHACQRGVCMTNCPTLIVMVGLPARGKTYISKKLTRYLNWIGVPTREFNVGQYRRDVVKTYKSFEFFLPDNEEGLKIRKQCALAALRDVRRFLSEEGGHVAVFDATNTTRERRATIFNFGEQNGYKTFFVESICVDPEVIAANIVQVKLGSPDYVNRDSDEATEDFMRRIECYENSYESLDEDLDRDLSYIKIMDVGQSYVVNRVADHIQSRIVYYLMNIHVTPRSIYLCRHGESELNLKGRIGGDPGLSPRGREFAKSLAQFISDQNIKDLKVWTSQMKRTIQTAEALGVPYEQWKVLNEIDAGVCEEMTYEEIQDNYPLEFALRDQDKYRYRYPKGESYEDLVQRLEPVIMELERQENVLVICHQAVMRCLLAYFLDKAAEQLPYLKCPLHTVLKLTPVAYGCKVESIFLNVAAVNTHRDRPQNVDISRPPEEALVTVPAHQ
UniProt Q9BTU6: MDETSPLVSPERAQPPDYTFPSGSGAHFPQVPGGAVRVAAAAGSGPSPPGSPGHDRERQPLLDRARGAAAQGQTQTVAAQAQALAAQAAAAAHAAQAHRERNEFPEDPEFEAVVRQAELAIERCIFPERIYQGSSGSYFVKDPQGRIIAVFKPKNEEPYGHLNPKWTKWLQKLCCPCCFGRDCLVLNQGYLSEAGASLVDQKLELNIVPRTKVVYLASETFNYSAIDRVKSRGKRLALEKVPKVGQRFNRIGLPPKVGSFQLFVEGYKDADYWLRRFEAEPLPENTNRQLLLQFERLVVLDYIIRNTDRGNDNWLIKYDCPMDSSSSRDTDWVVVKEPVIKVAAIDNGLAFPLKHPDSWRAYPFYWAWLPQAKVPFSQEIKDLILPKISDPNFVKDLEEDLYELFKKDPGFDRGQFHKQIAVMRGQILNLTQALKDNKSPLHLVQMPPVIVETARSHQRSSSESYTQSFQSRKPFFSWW
UniProt P46019: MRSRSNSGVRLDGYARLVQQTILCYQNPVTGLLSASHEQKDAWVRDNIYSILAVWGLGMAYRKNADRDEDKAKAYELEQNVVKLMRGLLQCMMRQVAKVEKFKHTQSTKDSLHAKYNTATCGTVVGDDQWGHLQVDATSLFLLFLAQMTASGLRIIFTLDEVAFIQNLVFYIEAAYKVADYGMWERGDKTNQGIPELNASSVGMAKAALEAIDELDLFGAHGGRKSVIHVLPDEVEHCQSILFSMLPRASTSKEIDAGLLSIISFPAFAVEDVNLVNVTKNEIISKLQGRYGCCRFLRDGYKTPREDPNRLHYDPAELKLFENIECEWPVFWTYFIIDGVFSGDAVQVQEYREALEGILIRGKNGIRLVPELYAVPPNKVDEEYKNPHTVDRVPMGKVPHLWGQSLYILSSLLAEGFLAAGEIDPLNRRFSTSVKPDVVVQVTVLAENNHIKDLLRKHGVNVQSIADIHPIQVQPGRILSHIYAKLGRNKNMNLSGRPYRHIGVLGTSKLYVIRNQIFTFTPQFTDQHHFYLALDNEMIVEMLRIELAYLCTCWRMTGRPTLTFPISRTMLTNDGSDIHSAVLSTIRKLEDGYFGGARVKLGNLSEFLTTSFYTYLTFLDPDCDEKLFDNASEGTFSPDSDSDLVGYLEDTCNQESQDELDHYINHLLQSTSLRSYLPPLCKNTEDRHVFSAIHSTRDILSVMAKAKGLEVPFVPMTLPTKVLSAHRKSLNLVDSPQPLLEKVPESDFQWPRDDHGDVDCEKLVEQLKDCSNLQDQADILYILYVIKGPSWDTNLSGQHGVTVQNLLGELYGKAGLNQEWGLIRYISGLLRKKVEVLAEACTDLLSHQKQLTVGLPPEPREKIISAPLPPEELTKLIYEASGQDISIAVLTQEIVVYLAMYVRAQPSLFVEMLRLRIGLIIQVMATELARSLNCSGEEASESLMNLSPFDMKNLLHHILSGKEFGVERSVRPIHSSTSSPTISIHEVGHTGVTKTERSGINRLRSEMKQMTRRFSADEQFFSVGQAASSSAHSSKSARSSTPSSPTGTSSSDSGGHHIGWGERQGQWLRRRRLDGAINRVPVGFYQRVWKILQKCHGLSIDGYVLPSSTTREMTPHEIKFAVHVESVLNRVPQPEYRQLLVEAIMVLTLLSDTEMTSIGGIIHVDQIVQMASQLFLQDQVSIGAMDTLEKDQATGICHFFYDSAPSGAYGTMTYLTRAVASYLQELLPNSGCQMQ

[1] = compound: C/C(=N\NC(=O)C1=CC(=CC=C1)S(=O)(=O)N2CCOCC2)/C3=C(C=CC(=C3)Cl)O
In short: as §1

[2] = compound: C1=CC(=C(C=C1Cl)C2=NC3=NC=CN=C3C(=N2)NC4=CC=NC=C4)F
In short: as §1

[3] = compound: C1=CC(=CC=C1C2=NC3=C(N2)C=C(C=C3)C(=O)N)OC4=CC=C(C=C4)Cl
In short: as §1

[4] = compound: C1=CC2=C(C=CC(=C2)/C=C\3/C(=O)NC(=NCC4=CC=CS4)S3)N=C1
In short: as §1

[5] = compound: C1=CC2=NC=CN=C2C=C1/C=C/3\C(=O)NC(=O)S3
In short: as §1

[6] = compound: C1=CC=C(C=C1)C2=NC(=C(N2)C3=CC=NC=C3)C4=CC(=C(C=C4)Cl)O
In short: as §1

[7] = compound: C1=CC=C2C(=C1)C3=NNC4=CC=CC(=C43)C2=O
In short: as §1

[8] = compound: C1CCN(C1)C(=O)NC2=CC=CC(=C2)NC3=NC=C(C(=N3)NCCC4=CN=CN4)Br
In short: as §1

[9] = compound: C1CN(CCC1(CC2=CC=C(C=C2)Cl)N)C3=NC=NC4=C3C=CN4
In short: as §1

IRAK-1-4 Inhibitor I = compound: C1COCCN1CCN2C3=CC=CC=C3N=C2NC(=O)C4=CC(=CC=C4)[N+](=O)[O-] [IRAK-1-4 Inhibitor I]
In short: as §1

ibrutinib = compound: C=CC(=O)N1CCC[C@@H](n2nc(-c3ccc(Oc4ccccc4)cc3)c3c(N)ncnc32)C1 [ibrutinib]
In short: as §1

[10] = compound: CC(=O)c1cnc2ccc(-c3cc(Cl)c(O)c(Cl)c3)nc2c1N[C@H]1CC[C@H](CN(C)C)CC1
In short: as §1

ralimetinib = compound: CC(C)(C)Cn1c(N)nc2ccc(-c3[nH]c(C(C)(C)C)nc3-c3ccc(F)cc3)nc21 [ralimetinib]
In short: as §1

[11] = compound: CC(C)(O)CC(=O)NCCn1ccc2ncnc(Nc3ccc(Oc4cccc(C(F)(F)F)c4)c(Cl)c3)c21
In short: as §1

[12] = compound: CC(C)C1=C2N=C(C=C(N2N=C1)NCC3=CC=CC=C3)NCCCCCCN
In short: as §1

[13] = compound: CC(C)C[C@@H](C=O)NC(=O)[C@H](CC(C)C)NC(=O)[C@H](CC(C)C)NC(=O)OCc1ccccc1
In short: as §1

pinometostat = compound: CC(C)N(C[C@H]1O[C@@H](n2cnc3c(N)ncnc32)[C@H](O)[C@@H]1O)[C@H]1C[C@@H](CCc2nc3cc(C(C)(C)C)ccc3[nH]2)C1 [pinometostat]
In short: as §1

[14] = compound: CC1=C(C(CC(=O)N1)C2=CC=C(C=C2)C(F)(F)F)C(=O)NC3=C(C=C4C(=C3)C=NN4)F
In short: as §1

[15] = compound: CC1=C(C2=C(C=C1)C(=O)C3=CC=CC=C3N2CCCN)C
In short: as §1

Measured: log2 fold change

PLCH1 (UniProt Q4KWH8)
inactive: erlotinib 0.008 | [1] -0.102 | [2] 0.01 | [3] 0.046 | [4] 0.124 | [5] 0.07 | [6] -0.076 | [7] 0.068 | [8] 0.009 | [9] -0.06 | IRAK-1-4 Inhibitor I -0.081 | ibrutinib -0.186 | [10] -0.09 | ralimetinib -0.084 | [11] 0.016 | [12] -0.119 | [13] 0.017 | pinometostat -0.02 | [14] 0.01 | [15] 0.067

PIP4P1 isoform 2 (UniProt Q86T03)
active: [12] -0.329
inactive: erlotinib 0.057 | [1] 0.001 | [2] 0.052 | [3] -0.014 | [4] -0.104 | [5] 0.068 | [6] 0.002 | [7] 0.035 | [8] -0.028 | [9] 0.101 | IRAK-1-4 Inhibitor I -0.011 | ibrutinib 0.003 | [10] -0.002 | ralimetinib 0.003 | [11] -0.004 | [13] 0.022 | pinometostat -0.031 | [15] -0.062

PICALM (UniProt H0YEY8)
inactive: erlotinib 0.046 | [1] -0.006 | [2] 0.05 | [3] -0.048 | [4] 0.086 | [5] -0.013 | [6] -0.161 | [7] -0.071 | [8] -0.038 | [9] 0.014 | IRAK-1-4 Inhibitor I 0.05 | ibrutinib 0.062 | [10] -0.083 | ralimetinib -0.034 | [11] 0.003 | [12] 0.012 | [13] 0.204 | pinometostat 0.002 | [14] -0.011 | [15] 0.013

PFDN2 (UniProt Q9UHV9)
inactive: erlotinib -0.028 | [1] 0.06 | [2] 0.015 | [3] -0.024 | [4] 0.01 | [5] 0.027 | [6] -0.042 | [7] -0.023 | [8] -0.02 | [9] 0.021 | IRAK-1-4 Inhibitor I 0.045 | ibrutinib -0.001 | [10] -0.008 | ralimetinib -0.045 | [11] -0.016 | [12] 0.046 | [13] -0.008 | pinometostat -0.046 | [14] -0.002 | [15] 0.029

PGGT1B (UniProt P53609)
inactive: erlotinib 0.024 | [1] 0.036 | [2] 0.114 | [3] 0.006 | [4] 0.049 | [5] -0.002 | [6] 0.021 | [7] -0.036 | [8] 0.054 | [9] 0.027 | IRAK-1-4 Inhibitor I 0.003 | ibrutinib -0.004 | [10] -0.062 | ralimetinib -0.055 | [11] 0.026 | [12] -0.019 | [13] 0.026 | pinometostat -0.03 | [15] -0.028

PFKFB4 (UniProt Q16877)
inactive: erlotinib -0.003 | [1] 0.028 | [2] -0.023 | [3] -0.002 | [4] -0.029 | [5] 0.044 | [6] -0.027 | [7] -0.023 | [8] 0.028 | [9] 0.034 | IRAK-1-4 Inhibitor I -0.003 | ibrutinib 0.023 | [10] -0.036 | ralimetinib -0.013 | [11] 0.006 | [12] 0.02 | [13] 0.032 | pinometostat 0.072 | [14] 0.003 | [15] 0.032

PI4K2A (UniProt Q9BTU6)
inactive: erlotinib -0.037 | [1] -0.01 | [2] 0.01 | [3] 0.019 | [4] 0.021 | [5] 0.071 | [6] -0.029 | [7] 0.01 | [8] -0.002 | [9] 0.046 | IRAK-1-4 Inhibitor I 0.01 | ibrutinib -0.018 | [10] -0.026 | ralimetinib -0.072 | [11] -0.062 | [12] -0.158 | [13] -0.002 | pinometostat -0.024 | [15] -0.006

PHKA2 (UniProt P46019)
inactive: erlotinib -0.077 | [1] 0.029 | [2] 0.041 | [3] -0.008 | [4] -0.011 | [5] 0.041 | [6] -0.028 | [7] -0.026 | [8] 0.004 | [9] 0.004 | IRAK-1-4 Inhibitor I 0.053 | ibrutinib -0.095 | [10] 0.049 | ralimetinib 0.011 | [11] -0.1 | [12] -0.143 | [13] 0.065 | pinometostat 0.138 | [15] 0.028
